# Reference: the supplement of paper PMC8007513
# Some of the results follow. Many values rest on one well or one pass, so single values are uncertain.
# Test system: Saccharomyces cerevisiae BY4743
# Assay: growth (OD600) relative to untreated control; higher = less growth inhibition
# Conditions: compound concentration: 133 uM; 20 h
# Method: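 NMCCC compounds (133 uM, no IPBC) tested alone against Saccharomyces cerevisiae BY4743 in YPD, 96-well plates, starting OD600 ~0.1. Growth was read as OD600 at 20 h and expressed as % of the untreated control. Single pass.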
row,Structure (SMILES),growth [%]
1,CC1=CC=C(CNC(=O)CC\C2=N\[S](=O)(=O)C3=CC=CC=C3N2)O1,103
2,CCC(C)NC(=O)c1cccc(-n2cnc3cccnc32)c1 (centres undefined),83.1
3,NC(=O)c1ccc(S(=O)(=O)N2CCN(CCC(=O)N3CCOCC3)CC2)o1,86.9
4,Cc1noc2ncnc(NC(C)CCc3ccccc3)c12 (centres undefined),88.3
5,CC1=CC=C(C=C1)[S](=O)(=O)N2\C=C/C3=CC=CC=C3C2C#N (centres undefined),97.3
6,CCCCN1\N=C(/C=C\C1=O)C(=O)NC2=CC=C(C=C2)[S](=O)(=O)N(C)CC3=CC=CC=C3,72.2
7,COc1ccc(C(=O)CSc2ccc3ccccc3n2)c(OC)c1,89.2
8,CCOC(=O)c1ccc(NC(NC(=O)OC)(c2ccccc2)C(F)(F)F)o1 (centres undefined),108
9,CCOC(=O)c1csc(NC(=O)c2cc(C)oc2C)n1,89.9
10,CCC1=CC=C(C=C1)C2=N[NH]C(=N2)SC\C3=C\C(=O)\C(=C/O3)O,92.2
11,CCCN(Cc1cccs1)C(=O)Nc1cc(Cl)ccc1OC,92.8
12,O=C(NCCO)c1nnc(Cc2ccc3c(c2)OCO3)o1,93.5
13,COC(=O)c1cc(S(=O)(=O)N2CCN(C3CCCCC3)CC2)c[nH]1,86.7
14,COc1ccc(CNC(=O)c2ccc(NS(=O)(=O)c3ccc(C(C)O)cc3)cc2)cc1OC (centres undefined),103
15,COc1ccc(Br)cc1CNC(=O)CN1C(=O)CSc2nc(C)cc(C)c21,101
16,O=C(Cc1cn2ccccc2n1)Nc1cccc(F)c1,103
17,CCC(C(=O)Nc1nnc(CCc2ccc(OC)cc2)s1)c1ccccc1 (centres undefined),83.1
18,COc1cccc(NC(=O)C2(n3cnnn3)CCCCC2)c1,90
19,CCS(=O)(=O)c1ccccc1C(=O)OCC(=O)N1CCNC1=O,117
20,CCC(C)NC(=O)c1c(-c2ccccc2)nnc2ccc(C)cc12 (centres undefined),112

row,Structure (SMILES),growth [%]
1,O=C(c1cc[nH]n1)N1CCc2sccc2C1,91.3
2,CCC(C(=O)N(CC)Cc1ccc2c(c1)OCCO2)c1ccccc1 (centres undefined),94
3,COC1=CC=CC=C1NC(=O)CS\C2=N\C(=C/C(=O)N2C3=CC=CC=C3OC)O,95.7
4,C[N]1N=CC(=C1C)N2\N=N/C3=C([N](C)N=C3)C2=O,104
5,CCn1c(-c2ccc(Br)cc2)cnc1SCC(=O)Nc1ccc(C(N)=O)cc1,91.1
6,CC1CCCCC1NC(=O)c1cc(S(=O)(=O)N2CCCC2)cn1C (centres undefined),84.3
7,CCN(CC)CCNC(=O)c1cnn(-c2cccc(C)c2)c1-n1cccc1,105
8,COc1cccc(CN2CCC(NC(=O)c3ccnc(N(C)C)c3)CC2)c1,107
9,CC(=O)c1c(C)[nH]c(C(=O)COC(=O)c2cccc(OC(F)F)c2)c1C,105
10,CSc1nc(O)n2ncc(-c3ccc(F)cc3)c2n1,102
11,CCCn1c(SCC(=O)Nc2ccc(CC#N)cc2)nnc1-c1ccncc1,104
12,CCOC(=O)C(CC)N1\C=N/C2=C(C=N[N]2C3=CC=C(Cl)C=C3)C1=O (centres undefined),102
13,CN(C)c1ccc(CN(Cc2ccco2)C(=O)COc2ccc(F)cc2)cc1,78.1
14,CC(C)CCNC(=O)c1ccc(Cn2c(C(F)(F)F)nc3cccnc32)cc1,103
15,O=C(CSc1ccc2c(c1)OCCCO2)NC1CCS(=O)(=O)C1 (centres undefined),104
16,Cc1ccc(/C=C/c2nnc(-c3cccs3)o2)cc1,75.6
17,Cc1nn(CC(=O)Nc2ccccc2C(F)(F)F)c2ccccc12,110
18,Cc1ccc(Nc2nc(SCc3ccccc3)nnc2C)cc1,92.6
19,CN(CC(=O)Nc1cccc(Cl)c1)S(=O)(=O)c1ccc(-c2ccc(O)nn2)s1,107

# Grouped by structure, those above containing a furan ring, fused or not.
row,Structure (SMILES),growth [%]
1,CC1=CC=C(CNC(=O)CC\C2=N\[S](=O)(=O)C3=CC=CC=C3N2)O1,103
3,NC(=O)c1ccc(S(=O)(=O)N2CCN(CCC(=O)N3CCOCC3)CC2)o1,86.9
8,CCOC(=O)c1ccc(NC(NC(=O)OC)(c2ccccc2)C(F)(F)F)o1 (centres undefined),108
9,CCOC(=O)c1csc(NC(=O)c2cc(C)oc2C)n1,89.9
13,CN(C)c1ccc(CN(Cc2ccco2)C(=O)COc2ccc(F)cc2)cc1,78.1
